PubChem BioAssay AID1347075 (National Center for Advancing Translational Sciences (NCATS), 2019)
In all, about 400,000 compounds went through this assay and about 5,500 (1.4%) were called active. The shares of active, inactive and inconclusive entries below differ from those in the screen. Calls follow the shape of the dose curve; as a rule, active = well fitted cell-killing curve with a large enough effect; inconclusive = small, poorly fitted or top-dose-only effect, or effect the other way; inactive = flat fitted curve, though single readings scatter. Where the call is inconclusive, the potency comes from a doubtful curve fit.

test: qHTS assay for MDR1-selective chemotherapeutics: Primary screen using the parental adenocarcinoma cell KB-3-1; settings: KB-3-1 viability, CellTiter-Glo ATP luminescence, 72 h; activity change, negative = cytotoxic: at 46.1 µM (top of the series); also: nearly all actives have a fitted effect of over 60% in size
How it was run: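 Viability of parental KB-3-1 cells, measured by CellTiter-Glo luminescence, followed a 72 h incubation at 37 °C with pinned compounds in phenol-red-free DMEM containing 10% FBS.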
% is scaled to controls: 0 for no effect and ±100 for the full control effect; potency is read from the fitted curve at half-maximal effect.

Row | SMILES | Potency | activity change, negative = cytotoxic
1 | CC(=O)N1CCc2cc(S(=O)(=O)NC(C)c3ccccc3)ccc21 (stereo not given) | inconclusive: 11.6 µM [cytotoxic, partial curve, poor fit] | 
2 | Cc1nc(N2CCN(c3ccccn3)CC2)c2c(C)c(C(=O)Nc3ccc(Cl)cc3)sc2n1 |  | inactive: -3.46%
3 | COc1ccc(/C=C2\COc3ccccc3C2=O)cc1OC | inconclusive: 20.6 µM [cytotoxic, single point] | 
4 | NC(N)=NC(N)=Nc1ccc(SC(F)(F)F)cc1 | inconclusive: 16.4 µM [cytotoxic, single point] | 
5 | O=C(CCNC(=O)N1CC(=O)Nc2ccccc21)Nc1ccc(F)c(Cl)c1 | inconclusive: 0.0021 µM [cytotoxic, full curve, poor fit] | 
6 | Cc1ncc(CN2CCN(C(C)C)C(CCO)C2)s1 (stereo not given) |  | inactive: 1.02%
7 | NC(=Nc1nc(-c2ccccn2)cc2ccccc12)c1ccccn1 | inconclusive: 0.0103 µM [cytotoxic, full curve, poor fit] | 
8 | N#CSCC(=O)c1cccc2ccccc12 | inconclusive: 25.9 µM [cytotoxic, single point] | 
9 | CCCCN(CC)Cc1c(O)ccc2c(-c3ccccc3)cc(=O)oc12 |  | inactive: -0.411%
10 | CCOC(=O)N1CCN(CC(=O)Nc2sccc2C#N)CC1 | inconclusive: 16.4 µM [cytotoxic, single point] | 
11 | CNC(=O)C1=C(C)NC(=S)NC1c1cccs1 (stereo not given) | inconclusive: 0.0116 µM [rising, full curve] | 
12 | CCOC(=O)C1=C(C)NC2=C(C(=O)CCC2)C1c1cccs1 (stereo not given) |  | inactive: 1.99%
13 | CC(C)Cc1nc(Cl)c(C#N)c2c1CCCC2 | inconclusive: 11.6 µM [cytotoxic, single point] | 
14 | COc1ccc(CCCc2nnc(SCC(=O)Nc3cccc(C)c3)o2)cc1C |  | inactive: -9.96%
15 | CCCCc1nn2c(=O)cc(COC(=O)c3cccc(NC(=O)c4cccc(Cl)c4)c3)nc2s1 |  | inactive: -2.15%
16 | COc1cc(OC)cc(C(=O)NCC(=O)N2CC=C(c3ccccc3)CC2)c1 | active: 5.8 µM | 
17 | Cc1c(CCOC(=O)c2ccc(N3CCOCC3)c([N+](=O)[O-])c2)sc[n+]1CC#N | active: 20.6 µM | 
18 | O=C(NC1CCN(C(=S)NCCc2ccccc2)CC1)C1CC1 |  | inactive: 0.155%
19 | CCCCN(C)CCCNC(=O)Cn1ncc2c3ccccc3n(Cc3cccc(Cl)c3)c2c1=O |  | inactive: -1.53%
20 | O=C(COC(=O)c1ccc(-c2ccc([N+](=O)[O-])cc2)o1)NC(=O)NC1CCCCC1 | inconclusive: 23.1 µM [rising, partial curve, poor fit] | 
21 | COc1ccc(C2=C(c3ccccc3)OC(OC)c3cc(F)ccc32)cn1 (stereo not given) | inconclusive: 25.9 µM [cytotoxic, single point] | 
22 | COCCNc1ccc(-c2nc(-c3ccncc3)no2)cc1[N+](=O)[O-] |  | inactive: -2.48%
23 | CCOc1ccc(N(CC(=O)Nc2ccc3c(c2)OCCO3)S(=O)(=O)c2c(C)noc2C)cc1 | inconclusive: 18.4 µM [cytotoxic, single point] | 

13 entries out of the list, ordered by formula weight, falling:
Row | SMILES | Potency | activity change, negative = cytotoxic
19 | CCCCN(C)CCCNC(=O)Cn1ncc2c3ccccc3n(Cc3cccc(Cl)c3)c2c1=O |  | inactive: -1.53%
23 | CCOc1ccc(N(CC(=O)Nc2ccc3c(c2)OCCO3)S(=O)(=O)c2c(C)noc2C)cc1 | inconclusive: 18.4 µM [cytotoxic, single point] | 
2 | Cc1nc(N2CCN(c3ccccn3)CC2)c2c(C)c(C(=O)Nc3ccc(Cl)cc3)sc2n1 |  | inactive: -3.46%
20 | O=C(COC(=O)c1ccc(-c2ccc([N+](=O)[O-])cc2)o1)NC(=O)NC1CCCCC1 | inconclusive: 23.1 µM [rising, partial curve, poor fit] | 
14 | COc1ccc(CCCc2nnc(SCC(=O)Nc3cccc(C)c3)o2)cc1C |  | inactive: -9.96%
5 | O=C(CCNC(=O)N1CC(=O)Nc2ccccc21)Nc1ccc(F)c(Cl)c1 | inconclusive: 0.0021 µM [cytotoxic, full curve, poor fit] | 
16 | COc1cc(OC)cc(C(=O)NCC(=O)N2CC=C(c3ccccc3)CC2)c1 | active: 5.8 µM | 
21 | COc1ccc(C2=C(c3ccccc3)OC(OC)c3cc(F)ccc32)cn1 (stereo not given) | inconclusive: 25.9 µM [cytotoxic, single point] | 
18 | O=C(NC1CCN(C(=S)NCCc2ccccc2)CC1)C1CC1 |  | inactive: 0.155%
3 | COc1ccc(/C=C2\COc3ccccc3C2=O)cc1OC | inconclusive: 20.6 µM [cytotoxic, single point] | 
6 | Cc1ncc(CN2CCN(C(C)C)C(CCO)C2)s1 (stereo not given) |  | inactive: 1.02%
11 | CNC(=O)C1=C(C)NC(=S)NC1c1cccs1 (stereo not given) | inconclusive: 0.0116 µM [rising, full curve] | 
8 | N#CSCC(=O)c1cccc2ccccc12 | inconclusive: 25.9 µM [cytotoxic, single point] | 

Following part:

Row | SMILES | Potency | activity change, negative = cytotoxic
24 | C=C(C)C1CC=C(C)/C(=N\NC(=S)Nc2ccc(C)cc2)C1 (stereo not given) | inconclusive: 16.4 µM [cytotoxic, single point] | 
25 | Cc1cc(NC(=O)CSc2c3c(nc4ccccc24)CCC3)no1 | inconclusive: 23.1 µM [cytotoxic, single point] | 
26 | CN(Cc1ccccc1N1CCCC1)C(=O)c1cc2cc(Cl)ccc2o1 | inconclusive: 29.1 µM [cytotoxic, single point] | 
27 | Cc1cccc(CSc2nc3c(c(=O)[nH]2)CCC3)c1 | inconclusive: 18.4 µM [cytotoxic, single point] | 
28 | CN(C)c1ccc(NC(=O)Nc2cccc(Cl)c2)cc1 |  | inactive: -1.81%
29 | COc1ccc(S(=O)(=O)NCc2cccn2Cc2cccc(C)c2)cc1Cl | inconclusive: 29.1 µM [cytotoxic, single point] | 
30 | COC(Cn1c(C)c(C(C)=O)c(C(C)=O)c1C)OC |  | inactive: 0.61%
31 | CCCCCCNC(=O)O[C@H]1Cn2c(=O)ccc(=O)n2[C@@H]2CN(S(=O)(=O)c3ccc(C)cc3)C[C@]12O | active: 16.4 µM | 
32 | CC(C)(C)c1cc(C(=O)N/N=C/c2ccc([N+](=O)[O-])s2)n[nH]1 | inconclusive: 29.1 µM [cytotoxic, single point] | 
33 | COc1ccc(-c2nc(SCC(=O)Nc3ccccc3)c(-c3ccc(F)cc3)[nH]2)cc1OC |  | inactive: -13.6%
34 | Cc1ccc(NC(=O)CSc2nnc(Cc3ccccc3)c(=O)[nH]2)c(C)c1 |  | inactive: 0.791%
35 | COC(=O)c1ccc(COc2ccccc2/C=C(\C#N)C(=O)Nc2c(C)cccc2C)cc1 | inconclusive: 29.1 µM [cytotoxic, single point] | 
36 | COc1ccc(/C=C/C(=O)O)cc1S(=O)(=O)Nc1ccc2c(c1)OCO2 |  | inconclusive: 31%
37 | COc1ccc(/C=N/NC(=O)Cc2csc(Nc3cccc(C(F)(F)F)c3)n2)cc1C | inconclusive: 29.1 µM [cytotoxic, single point] | 
38 | CC(=O)N1CCN(S(=O)(=O)c2cccc(C(=O)Nc3ccc(OC(F)F)cc3)c2)CC1 | inconclusive: 0.259 µM [cytotoxic, partial curve, poor fit] | 
39 | Cc1nc2c3ccccc3nc(NNC(=O)CCC(=O)N3CCN(c4cccc(Cl)c4)CC3)n2n1 |  | inactive: -11.1%
40 | Oc1ccc(C[C@H]2CNC(=S)N2CC2CCCN2C[C@H](Cc2ccc(O)cc2)N2C[C@H](Cc3ccc(O)cc3)N(CC3CCCCCC3)C2=S)cc1 (stereo not given in full) | active: 20.6 µM | 
41 | Cc1ccccc1S(=O)(=O)N1C[C@H]2CON(C)[C@H]2C[C@H]1c1cccc(N2CCOCC2)c1 | inconclusive: 0.0052 µM [rising, full curve] | 
42 | COc1ccc(S(=O)(=O)N(CC(=O)Nc2ccc(F)c(Cl)c2)c2ccc(C)cc2)cc1OC | inconclusive: 29.1 µM [cytotoxic, single point] | 
43 | O=[N+]([O-])c1cc2no[n+]([O-])c2cc1N1CCCCC1 | inconclusive: 20.6 µM [rising, single point] | 
44 | CCN(CC(O)Cn1c2ccccc2c2ccccc21)S(=O)(=O)c1ccc(F)cc1 (stereo not given) | inconclusive: 20.6 µM [cytotoxic, single point] | 
45 | CN(CC(=O)Nc1ccc(N2CCOCC2)cc1)C(=O)c1ccc(CS(C)(=O)=O)cc1 |  | inactive: -11.5%
